Values from PubChem BioAssay AID1259405 (NCATS, 2018)

Assay: 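Silenced genes that increase secreted GFP made by CHO cells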 (primary screen)
System: Chinese hamster CHO-K1 ovary cells with stable secreted eGFP expression
Reagents: single siRNA against mouse genes, 0.8 pmol siRNA per well (2 µl of 400 nM stock)
Duration: 3 days
Detection: 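Percent of the per-plate non-targeting control median for intracellular GFP per well by laser scanning cytometry and for cell viability by ATP luminescence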
Direction: GFP, % of control: higher = more GFP per well, higher productivity; viability (ATP), % of control: higher = more viable cells (more ATP)
Call rule: 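a knock-down is called active if GFP reaches 120% or more of non-targeting control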
The deposit covers about 50,000 reagents; shown is a part drawn at random. In the full data, about 4,000 (8%) were called active. 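Mouse siRNA library applied to hamster cells; one well for each siRNA.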 The numbers tell different reagents against one gene apart.

Adhfe1 #1 | GFP, % of control = 74.7; viability (ATP), % of control = 66; call = inactive
Adhfe1 #2 | GFP, % of control = 78.6; viability (ATP), % of control = 68; call = inactive
Adhfe1 #3 | GFP, % of control = 83.6; viability (ATP), % of control = 75.7; call = inactive
Bcl2l13 #1 | GFP, % of control = 85.6; viability (ATP), % of control = 99.9; call = inactive
Bcl2l13 #2 | GFP, % of control = 64.5; viability (ATP), % of control = 70; call = inactive
Cd37 #1 | GFP, % of control = 43.6; viability (ATP), % of control = 36.8; call = inactive
Cd37 #2 | GFP, % of control = 91.1; viability (ATP), % of control = 52.1; call = inactive
Cd37 #3 | GFP, % of control = 45.6; viability (ATP), % of control = 57.9; call = inactive
Xpr1 #1 | GFP, % of control = 68.8; viability (ATP), % of control = 105; call = inactive
Xpr1 #2 | GFP, % of control = 59.7; viability (ATP), % of control = 88.7; call = inactive
Xpr1 #3 | GFP, % of control = 91.7; viability (ATP), % of control = 69.5; call = inactive
Cox15 #1 | GFP, % of control = 66.9; viability (ATP), % of control = 71.3; call = inactive
Cox15 #2 | GFP, % of control = 80.4; viability (ATP), % of control = 73; call = inactive
Cox15 #3 | GFP, % of control = 95.7; viability (ATP), % of control = 104; call = inactive

As entered above:
Under “viability (ATP), % of control”, Bcl2l13 #2 shows 70
Xpr1 #3, viability (ATP), % of control = 69.5

The results go on.
Epo #1 | GFP, % of control = 62.1; viability (ATP), % of control = 71.6; call = inactive
Epo #2 | GFP, % of control = 97.5; viability (ATP), % of control = 88.7; call = inactive
Epo #3 | GFP, % of control = 131; viability (ATP), % of control = 123; call = active
A730013G03Rik #1 | GFP, % of control = 68.3; viability (ATP), % of control = 65.7; call = inactive
A730013G03Rik #2 | GFP, % of control = 71; viability (ATP), % of control = 42.1; call = inactive
A730013G03Rik #3 | GFP, % of control = 71; viability (ATP), % of control = 87.1; call = inactive
Pcdhgb5 #1 | GFP, % of control = 103; viability (ATP), % of control = 74.6; call = inactive
Pcdhgb5 #2 | GFP, % of control = 78.2; viability (ATP), % of control = 72.3; call = inactive
Pcdhgb5 #3 | GFP, % of control = 49.9; viability (ATP), % of control = 53.8; call = inactive
Acbd6 #1 | GFP, % of control = 99.6; viability (ATP), % of control = 75.6; call = inactive
Acbd6 #2 | GFP, % of control = 33.4; viability (ATP), % of control = 34.4; call = inactive
Acbd6 #3 | GFP, % of control = 66.9; viability (ATP), % of control = 62.8; call = inactive
Zfp449 #1 | GFP, % of control = 91; viability (ATP), % of control = 48.4; call = inactive
Zfp449 #2 | GFP, % of control = 74.7; viability (ATP), % of control = 66.7; call = inactive
